From PMC6123713, “Adenylate kinase potentiates the capsular polysaccharide by modulating Cps2D in Streptococcus pneumoniae D39” (Experimental & Molecular Medicine, 2018)
Results are given in words; binding and its absence hold for the method and conditions named. Binding seen in cells or lysates may run through a third protein. Some entries that bind do so weakly or less than the wild type.

Target: T1, Cps2D, endogenous (Streptococcus pneumoniae D39 (endogenous in D39 lysate)) (UniProt Q9ZII6)
T1 sequence: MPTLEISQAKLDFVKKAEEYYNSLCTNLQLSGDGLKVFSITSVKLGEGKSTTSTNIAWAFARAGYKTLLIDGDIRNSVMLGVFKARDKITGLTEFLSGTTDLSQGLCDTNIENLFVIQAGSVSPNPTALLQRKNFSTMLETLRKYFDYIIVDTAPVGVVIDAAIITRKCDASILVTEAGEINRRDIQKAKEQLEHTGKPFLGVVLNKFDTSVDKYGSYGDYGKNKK
Assay: co-IP; S. pneumoniae D39 WT lysate (100 µg) with antibodies against SpAdK, Cps2D or AdhE (negative control), Protein A/G PLUS Agarose, 4 °C; western blotting; no exogenous Mg-ATP added

B1: GST-SpAdK (Streptococcus pneumoniae adenylate kinase, GST-tagged) (enzyme)
chain: MNLLIMGLPGAGKGTQAAKIVEQFHVAHISTGDMFRAAMANQTEMGVLAKSYIDKGELVPDEVTNGIVKERLSQDDIKETGFLLDGYPRTIEQAHALDKTLAELGIELEGIINIEVNPDSLLERLSGRIIHRVTGETFHKVFNPPVDYKEEDYYQREDDKPETVKRRLDVNIAQGEPIIAHYRAKGLVHDIEGNQDINDVFSDIEKVLTNLK
notes: adenylate kinase of Streptococcus pneumoniae (SpAdK); also called glutathione S-transferase (GST)-SpAdK; pGST-ADK; source: recombinant, purified; plasmid pGST-ADK (E. coli plasmid pGST-parallel 2); cloning and purification in the Supplementary Information
With B1 the binding was “binds”.
